{"sequences": {"note": "Protein sequences, listed by entry. Tags and fused reporters are not part of them. Lines headed by an entry give the natural chain unless they say otherwise; changes in a name come on top.", "UniProt P05549": "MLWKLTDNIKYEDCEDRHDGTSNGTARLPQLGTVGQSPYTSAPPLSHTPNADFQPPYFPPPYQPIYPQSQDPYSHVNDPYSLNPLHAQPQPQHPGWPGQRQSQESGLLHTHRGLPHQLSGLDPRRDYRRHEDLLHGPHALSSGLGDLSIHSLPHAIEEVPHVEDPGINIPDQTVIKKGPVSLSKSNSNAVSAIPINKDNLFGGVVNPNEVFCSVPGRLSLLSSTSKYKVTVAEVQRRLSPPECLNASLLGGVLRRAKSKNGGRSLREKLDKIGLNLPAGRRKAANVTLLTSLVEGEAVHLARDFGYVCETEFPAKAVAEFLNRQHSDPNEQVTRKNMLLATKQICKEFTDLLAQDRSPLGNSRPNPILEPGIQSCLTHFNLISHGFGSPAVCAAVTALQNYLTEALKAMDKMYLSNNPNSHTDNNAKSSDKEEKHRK"}, "source": "paper PMC3146506", "key": {"[1]": {"molecular_target": "TFAP2A (AP-2alpha) in HeLa nuclear extract (UniProt P05549)", "test": "EMSA, supershift", "details": "20 µl reactions set up on ice, 15 min: 1 µl HeLa nuclear extract, 1 µl dI/dC (10 units/ml), 11.5 µl 2x buffer, protein in an extract, label: 32P end label"}, "[2]": {"molecular_target": "TFAP2A (AP-2alpha) in HeLa nuclear extract (UniProt P05549)", "test": "competition with a labelled probe", "details": "100-fold excess unlabeled, competes Bmp2 I, II and Bmp4 I, III probes; 20 µl reactions set up on ice, 15 min: 1 µl HeLa nuclear extract, 1 µl dI/dC (10 units/ml), 11.5 µl 2x buffer; protein in an extract"}, "[3]": {"details": "competed by 100x cold TFAP2 oligo, supershifted by anti-TFAP2"}}, "note": "The exact form of at least one protein or probe is not confirmed. At least one result comes from cells or an extract, where the contact may be indirect. For part of these data: No signal at the amounts used counts as a negative."}
{"sequence": "AGGGAGGGGCCGCTGGGGGGAAAGA (double strand) [Bmp4 AP-2 III]", "values": [{"measurement": "binding result", "setting": "[1]; [3]", "result": "binds"}]}
{"sequence": "AAAAAGGGGCCAAAGGGCACTTTGT (double strand) [Bmp4 AP-2 I]", "values": [{"measurement": "binding result", "setting": "[1]; [3]", "result": "binds"}]}
{"sequence": "GACACTTGGCCCGAGGGCTCGGAGC (double strand) [Bmp2 AP-2 II]", "values": [{"measurement": "binding result", "setting": "[1]; [3]", "result": "binds"}]}
{"sequence": "GAGTGAGCGCCCAAGGCGAGCGGGC (double strand) [Bmp2 AP-2 I]", "values": [{"measurement": "binding result", "setting": "[1]; [3]", "result": "binds"}]}
{"sequence": "GAGGCGAGGCCCCGTGGCTGGATGGG (double strand) [Bmp4 AP-2 II]", "values": [{"measurement": "binding result", "setting": "[1]; bound faster-moving unknown proteins, neither competed nor supershifted", "result": "no binding"}]}
{"sequence": "AGTAGAAGCTGGGCCCCAGGCGTGGCGCTT (double strand) [TFAP2 binding oligo (cold competitor)]", "values": [{"measurement": "binding result", "setting": "[2]", "result": "binds"}]}
